Reference: US20240189358A1
No constants are given. Whether binding was seen depends on the method and setting. Some results given as binding are weak or reduced against the parent protein; the word gives no strength.

Amino acid sequences for entries named in this document (tags omitted). A change or cut given only in a name is not applied to a line headed by its entry.
UniProt P10747: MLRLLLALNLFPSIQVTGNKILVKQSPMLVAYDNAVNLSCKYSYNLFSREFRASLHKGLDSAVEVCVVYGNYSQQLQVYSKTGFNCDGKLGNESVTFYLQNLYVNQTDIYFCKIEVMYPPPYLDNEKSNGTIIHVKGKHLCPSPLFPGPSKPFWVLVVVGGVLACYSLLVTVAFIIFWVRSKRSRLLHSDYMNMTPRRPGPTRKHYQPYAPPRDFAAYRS

Molecular target: T1, mouse uPAR (mouse) (UniProt P35456)
T1 sequence (looked up): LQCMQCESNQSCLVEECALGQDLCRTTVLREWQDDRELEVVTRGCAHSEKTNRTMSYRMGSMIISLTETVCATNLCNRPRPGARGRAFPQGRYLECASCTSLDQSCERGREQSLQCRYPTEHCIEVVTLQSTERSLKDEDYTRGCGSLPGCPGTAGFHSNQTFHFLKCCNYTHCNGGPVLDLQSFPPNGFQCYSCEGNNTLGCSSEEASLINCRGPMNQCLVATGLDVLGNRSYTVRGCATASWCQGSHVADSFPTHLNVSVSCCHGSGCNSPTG
Experiment: flow cytometry on NALM6 and Eµ-ALL01 cells engineered to overexpress mouse uPAR, against wild type cells

## m.uPAR-h.28z chimeric antigen receptor (human SFG-m.uPAR-h28z CAR) (from UniProt P10747 114-220; P20963 52-163)
  binding: binds
